These are yes or no findings as the source states them, for the method shown. In cells and extracts the contact can be indirect. A result given as binding can be weak or reduced; the word gives no strength.

Protein sequences, listed by entry. Tags and fused reporters are not part of them. Lines headed by an entry give the natural chain unless they say otherwise; changes in a name come on top.
UniProt Q7Z4F1: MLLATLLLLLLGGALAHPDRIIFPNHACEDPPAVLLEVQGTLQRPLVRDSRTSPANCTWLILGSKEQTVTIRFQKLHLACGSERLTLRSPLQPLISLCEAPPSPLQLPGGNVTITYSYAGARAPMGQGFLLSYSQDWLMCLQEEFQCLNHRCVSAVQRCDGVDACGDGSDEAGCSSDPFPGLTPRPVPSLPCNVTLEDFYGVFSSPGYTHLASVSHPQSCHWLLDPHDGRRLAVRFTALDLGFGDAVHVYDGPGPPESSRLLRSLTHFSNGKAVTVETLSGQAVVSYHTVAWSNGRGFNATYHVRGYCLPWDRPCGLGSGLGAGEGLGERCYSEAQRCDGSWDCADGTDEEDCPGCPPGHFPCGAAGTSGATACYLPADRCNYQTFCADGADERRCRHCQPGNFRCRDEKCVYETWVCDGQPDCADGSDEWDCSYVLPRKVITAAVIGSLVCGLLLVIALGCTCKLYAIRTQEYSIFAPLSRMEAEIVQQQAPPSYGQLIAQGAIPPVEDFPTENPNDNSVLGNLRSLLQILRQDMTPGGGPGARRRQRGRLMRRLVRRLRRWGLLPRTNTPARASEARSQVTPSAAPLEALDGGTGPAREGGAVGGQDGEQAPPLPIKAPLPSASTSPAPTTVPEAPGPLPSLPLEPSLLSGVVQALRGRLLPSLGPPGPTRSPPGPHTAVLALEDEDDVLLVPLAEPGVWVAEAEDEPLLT

This assay has as its target HA-tagged LRP10^2DXXAA (LRP10 double DXXLL trafficking mutant) (human) (UniProt Q7Z4F1). Nature of the assay: co-IP; lysates of transfected HEK cells (both partners co-expressed, or LRP10-HA alone with endogenous APP); 50 mM Tris pH 7.4, 150 mM NaCl, 1% NP-40; precipitation with anti-HA, anti-APP or anti-FLAG overnight at 4°C, protein A- or G-Sepharose; immunoblot.

In the case of “untagged APP695 (from UniProt P05067-4 18-695)”, the binding entry is “binds”.

(Values after article PMC3520120.)
